This is an account of results in PMC5996148.

This is one part of the list.

Common to all, as to experiment: protein microarray (ProtoArray v5.0), streptavidin-Alexa Fluor 647
What all share (conditions): 3'-biotin; 20 mM Tris (pH 7.5), 5 mM MgCl2, 100 mM KCl, 0.1% Tween-20, A/T-rich and random oligonucleotide blockers; temperature not stated; high values mean tight binding

In test [1] the test system is GAPDHS (human).
The subject of test [2] is GAS2-like protein 3 (human).
Test [3] deals with GBP6 (human).
Test [4] has as its system GCA (human).
The test system of test [5] is GCLM (human).
The test system of test [6] is GDPD5 (human).
The subject of test [7] is GFPT1 (human).
Test [8] concerns GGA2 (human).
Test [9] concerns GGT6 (human).
The subject of test [10] is GIF (human).

For the sequence “GGTGACAGGGGTATGGGGAGGGG [G4-2 biotinylated (Ct1)]”, the binding signal in test [1] was -0.382 z-score; in test [2], 3.44 z-score; in test [3], -0.376 z-score; in [4], -0.388 z-score; in test [5], -0.376 z-score; in [6], -0.382 z-score. In addition, the binding signal in test [7] is -0.362 z-score; in [8], -0.386 z-score; in [9], -0.37 z-score; in test [10], -0.37 z-score.
